Results are given in words; binding and its absence hold for the method and conditions named. In cells and extracts the contact can be indirect. Some binding calls cover weakened binding; strength is not graded here. Blank lines part the entries; values can stand above or below the binder they belong to.
Legend:
Test in all cases: co-IP; endogenous proteins in lysates of rat primary FLSs (OE/KD PPARγ-treated); IP/Co-IP lysis buffer; antibody with Protein A/G magnetic beads, 4 °C overnight; washed thrice with lysis buffer; Western blot; IgG control
[1] = target: T1, CHMP7 (ESCRT-III subunit) (rat (endogenous in primary FLSs of SD rats)) (UniProt D4A7H9)
T1 sequence: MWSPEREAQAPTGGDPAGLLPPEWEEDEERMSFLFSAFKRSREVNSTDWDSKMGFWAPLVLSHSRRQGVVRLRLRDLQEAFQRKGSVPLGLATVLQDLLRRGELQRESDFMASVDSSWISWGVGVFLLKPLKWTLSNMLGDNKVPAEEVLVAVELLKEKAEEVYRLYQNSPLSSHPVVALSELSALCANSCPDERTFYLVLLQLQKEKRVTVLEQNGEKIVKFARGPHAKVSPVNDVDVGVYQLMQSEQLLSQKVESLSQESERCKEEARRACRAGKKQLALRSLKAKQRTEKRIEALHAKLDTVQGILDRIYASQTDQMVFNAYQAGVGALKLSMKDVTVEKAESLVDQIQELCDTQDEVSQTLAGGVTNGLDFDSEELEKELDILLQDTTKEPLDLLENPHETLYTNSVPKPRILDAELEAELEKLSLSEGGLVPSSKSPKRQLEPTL

By UniProt entry, the sequences of proteins in these tests, tags left out.
UniProt Q9JJ50: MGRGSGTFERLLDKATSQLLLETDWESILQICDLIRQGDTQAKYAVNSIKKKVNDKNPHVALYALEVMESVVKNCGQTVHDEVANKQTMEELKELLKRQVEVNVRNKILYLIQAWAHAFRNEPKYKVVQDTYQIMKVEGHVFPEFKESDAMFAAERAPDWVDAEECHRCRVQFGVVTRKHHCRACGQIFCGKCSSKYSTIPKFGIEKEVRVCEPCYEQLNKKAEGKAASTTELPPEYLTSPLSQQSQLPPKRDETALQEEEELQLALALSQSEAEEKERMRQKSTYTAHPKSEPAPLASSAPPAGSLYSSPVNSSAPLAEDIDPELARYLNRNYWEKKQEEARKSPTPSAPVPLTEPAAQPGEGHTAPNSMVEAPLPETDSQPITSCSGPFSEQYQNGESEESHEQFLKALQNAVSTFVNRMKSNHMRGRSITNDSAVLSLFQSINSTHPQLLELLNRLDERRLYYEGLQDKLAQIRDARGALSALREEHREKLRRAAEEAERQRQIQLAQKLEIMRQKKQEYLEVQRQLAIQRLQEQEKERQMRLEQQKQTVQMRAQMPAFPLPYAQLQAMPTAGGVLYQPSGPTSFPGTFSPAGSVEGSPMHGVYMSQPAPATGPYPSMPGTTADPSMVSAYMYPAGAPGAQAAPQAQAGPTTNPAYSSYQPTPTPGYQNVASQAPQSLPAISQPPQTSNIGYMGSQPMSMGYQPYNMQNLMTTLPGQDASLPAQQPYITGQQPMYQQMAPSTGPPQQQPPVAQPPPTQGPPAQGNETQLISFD

[2] = target: Hrs (ESCRT-0 subunit), hepatocyte growth factor-regulated tyrosine kinase substrate (rat (endogenous in primary FLSs of SD rats)) (UniProt Q9JJ50)
[3] = target: T2, TSG101 (ESCRT-I subunit) (rat (endogenous in primary FLSs of SD rats)) (UniProt Q6IRE4)
T2 sequence: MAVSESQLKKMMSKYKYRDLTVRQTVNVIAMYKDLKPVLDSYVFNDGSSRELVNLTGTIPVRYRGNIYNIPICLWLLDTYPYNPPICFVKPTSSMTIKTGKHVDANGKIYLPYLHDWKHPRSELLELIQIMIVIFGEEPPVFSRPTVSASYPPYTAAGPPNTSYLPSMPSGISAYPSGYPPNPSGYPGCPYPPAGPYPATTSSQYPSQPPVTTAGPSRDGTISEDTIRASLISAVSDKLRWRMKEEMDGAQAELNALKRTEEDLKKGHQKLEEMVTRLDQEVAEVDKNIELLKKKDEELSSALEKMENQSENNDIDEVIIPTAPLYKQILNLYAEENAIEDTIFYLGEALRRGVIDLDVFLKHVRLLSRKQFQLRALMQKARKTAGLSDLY

[4] = target: T3, PPARγ coactivator PGC-1α (rat (endogenous in primary FLSs of SD rats)) (UniProt Q9QYK2)
T3 sequence: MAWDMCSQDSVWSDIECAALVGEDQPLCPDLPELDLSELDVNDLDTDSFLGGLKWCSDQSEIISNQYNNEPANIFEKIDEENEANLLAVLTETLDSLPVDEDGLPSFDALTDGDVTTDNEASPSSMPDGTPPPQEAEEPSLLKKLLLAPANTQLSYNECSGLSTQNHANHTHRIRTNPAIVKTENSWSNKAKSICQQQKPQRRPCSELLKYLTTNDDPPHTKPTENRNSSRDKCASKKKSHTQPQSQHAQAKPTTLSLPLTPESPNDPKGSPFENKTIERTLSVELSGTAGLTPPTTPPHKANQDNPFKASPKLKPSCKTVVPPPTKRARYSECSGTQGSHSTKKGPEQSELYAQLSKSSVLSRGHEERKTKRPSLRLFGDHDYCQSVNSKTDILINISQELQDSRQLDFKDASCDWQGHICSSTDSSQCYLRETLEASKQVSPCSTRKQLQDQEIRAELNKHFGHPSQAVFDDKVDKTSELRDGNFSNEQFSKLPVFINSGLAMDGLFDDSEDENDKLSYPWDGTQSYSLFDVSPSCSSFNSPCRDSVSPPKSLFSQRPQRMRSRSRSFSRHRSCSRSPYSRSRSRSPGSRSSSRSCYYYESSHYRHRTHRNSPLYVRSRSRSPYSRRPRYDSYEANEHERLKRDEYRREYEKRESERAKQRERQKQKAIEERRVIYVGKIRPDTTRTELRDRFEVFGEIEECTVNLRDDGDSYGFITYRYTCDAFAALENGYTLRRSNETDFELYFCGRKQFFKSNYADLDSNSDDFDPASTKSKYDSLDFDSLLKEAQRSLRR

B2: CHMP7 (ESCRT-III subunit) (protein, UniProt D4A7H9 1-450)
chain: T1 sequence
binding [4]: binds

B4: Annexin A1 (ANXA1) in FLSs (protein, UniProt P07150 1-346)
chain: MAMVSEFLKQACYIEKQEQEYVQAVKSYKGGPGSAVSPYPSFNPSSDVAALHKAIMVKGVDEATIIDILTKRTNAQRQQIKAAYLQETGKPLDETLKKALTGHLEEVVLAMLKTPAQFDADELRAAMKGLGTDEDTLIEILTTRSNQQIREITRVYREELKRDLAKDITSDTSGDFRNALLALAKGDRCEDMSVNQDLADTDARALYEAGERRKGTDVNVFNTILTTRSYPHLRKVFQNYRKYSQHDMNKALDLELKGDIEKCLTTIVKCATSTPAFFAEKLYEAMKGAGTRHKTLIRIMVSRSEIDMNEIKVFYQKKYGIPLCQAILDETKGDYEKILVALCGGN
binding [4]: binds

Now from value to binder:

binding [1]: binds | binding [2]: binds | binding [3]: binds
B1: PPARγ coactivator PGC-1α (protein, UniProt Q9QYK2 1-796)
chain: T3 sequence

binding [4]: binds
B3: TSG101 (ESCRT-I subunit) (protein, UniProt Q6IRE4 1-391)
chain: T2 sequence
